Measured values taken from article PMC6334971.
Results are given in words; binding and its absence hold for the method and conditions named. In cells and extracts the contact can be indirect. Here binding means that the protein was enriched with, or labelled near, the bait; the list need not be complete. Tags and fused reporters may be left off the sequences shown. One block for each molecule: values may come before it.

How the values were obtained:
[1] = molecular target: T1, HA-tagged TvTom40-2 (T. vaginalis TOM 40-2) (Trichomonas vaginalis) (UniProt A2EH93); experiment: affinity purification with mass spectrometry; coIP of the HA-tagged bait with α-HA Dynabeads from isolated hydrogenosomes under native conditions (no crosslinker), MKG buffer with 1% digitonin; eluted with HA peptide; LFQ-MS against the wild-type strain; four independent coIPs
T1 sequence: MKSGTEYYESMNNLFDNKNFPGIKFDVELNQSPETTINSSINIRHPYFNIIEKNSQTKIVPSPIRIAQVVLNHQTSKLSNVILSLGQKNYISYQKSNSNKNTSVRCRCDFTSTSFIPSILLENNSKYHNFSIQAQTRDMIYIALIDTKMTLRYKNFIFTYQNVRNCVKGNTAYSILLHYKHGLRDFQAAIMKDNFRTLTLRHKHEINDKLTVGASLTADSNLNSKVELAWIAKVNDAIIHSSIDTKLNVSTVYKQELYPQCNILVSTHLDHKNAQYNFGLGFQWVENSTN

[2] = molecular target: T2, HA-tagged Tom36 (Trichomonas vaginalis) (UniProt A2DU34); experiment: as above
T2 sequence: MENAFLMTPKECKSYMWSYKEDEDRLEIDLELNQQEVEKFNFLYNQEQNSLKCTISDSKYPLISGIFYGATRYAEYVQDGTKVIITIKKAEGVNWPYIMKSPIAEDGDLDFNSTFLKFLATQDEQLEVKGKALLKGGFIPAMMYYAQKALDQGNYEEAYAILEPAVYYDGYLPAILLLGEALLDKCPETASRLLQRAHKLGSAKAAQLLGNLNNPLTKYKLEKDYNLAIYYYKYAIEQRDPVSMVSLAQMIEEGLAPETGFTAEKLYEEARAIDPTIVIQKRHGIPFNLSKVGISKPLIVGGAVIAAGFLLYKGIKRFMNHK

[3] = molecular target: T1, HA-tagged TvTom40-2 (T. vaginalis TOM 40-2) (Trichomonas vaginalis); experiment: affinity purification with mass spectrometry; coIP of the HA-tagged bait with α-HA Dynabeads from isolated hydrogenosomes crosslinked with 1 mM DSP (30 min, 25 °C), solubilised in MKG buffer with 1% digitonin; eluted with SDS-PAGE buffer; LFQ-MS against the wild-type strain; four independent coIPs
[4] = molecular target: T2, HA-tagged Tom36 (Trichomonas vaginalis); experiment: as above

- binding [1]: binds
- binding [2]: binds
- binding [3]: binds
- binding [4]: binds
Molecule: hydrogenosomal membrane protein 35 (Hmp35)

- binding [4]: binds
B1: Homp38 (protein, UniProt A2EFG6 1-342)
chain: MITPSHQIIYDWEYQDQQEECFVTIHFPPTFNPQVLKYVLSEDKTNLILSMDSPIPIVCGRLWGEVKEIKDVYTSDKYVLSITKQTPEEWPNIIKAVHPEFESLDPKSAYIQFQELVLEAPKDPQFQHYAIERLVASAQTGFLPALRTYGSMMLTVNGQQQNGFTSLKTAADTYGDPASAYQVGLILASTPEGFTNGISYLKFAGSKGFHAAYLTLGQIYSPFTEFEAQKDPALAAQYLQQAIAAGDEMPQAYNELSKLYAAGVGVEKDLKKAQELLAKGEQLEEHQNRRRYSKEHGETAPPPEKHEDRSYAGIGKIIAIGGGIAAFVAGFSYAIYKKFSRK

- binding [1]: binds
- binding [3]: binds
B2: Tom36 (protein, UniProt A2DU34 1-322)
chain: T2 sequence

- binding [3]: binds
- binding [4]: binds
B3: Tom46 (protein, UniProt A2FNS9 1-412)
chain: MEVDLVIPSNQVRIYMWEFAQDDSNLTITIDLHEEDPQTFTANYSKDDNTLKCTLKGAKYPIVNGILHKATDSMDKTIDGNTVVLKLHKVENGNWSYPIESPVAGESDIDFNSAFLKSIQNPEKPENQEKINNLVKAGFIPAIMYNAKKLIDAEDIDKAADLLDNIVFVEPYLPAVLLLGEAYMTKSPGMAVHCLQTGYRLGSKRAAKLLGDLYSPVSEYKSNKDADMSLTYYRYGIEDKDPQSMVAAAQLIESGLGPKTNILEPDELYEEAKAIDPTIVIPKRHKEEPKPVEQPKPVEQPKPVEQPKPVEQPKPVEQPKPVEQPKPVEQPTPEPAPEPEPKPEPPVAPEPEPVHEEPEPEPPVVKELIRNYPYPDDEYPTINTKAMILTGIAGAAVLVGAIIIIAKKLMKK

- binding [2]: binds
- binding [4]: binds
B4: Sam50 (sorting and assembly machinery 50) (protein, UniProt A2DIG2 1-398)
chain: MSSAPEWFPTGSLQEAIDEVKKLTVDDEFKEAAMKSIAEKVLQLGSIKSATIDAKTGEYNVVARDGLMKTYVGGDIGTEKAVRASTGWANFFKRGETISLTGKYTVGGNPSVNVAFTLPDFKSVDFSKNTPFRTYSYAFNIEKNDDGYKSIQSAGFEFNLGGGKDVFSKSISLSAIRQAIDSDVPFPLKYEPNPYFKFQIGAGMPSFLPMQRNQIHAGLICDTKLAVTPFVKATGFNKINLPFGISITANMGLISSLRKRPGAKLSLENMTPVPYPEKFLLGGLPTIYGVDAAKFGYKYGGFPIGSNVYASLTLDESVLIFPEQSLNGHIFLSGSIAKNFSSYFPQSCDPSWTSLAVAGVGLTFIQGQVKVEANLQKPIFQSGAKLNVLTYQLGITPA

- binding [1]: binds
- binding [3]: binds
- binding [4]: binds
B5: hydrogenosomal outer membrane protein 19 (Homp19) (protein, UniProt A2DEL5 1-165)
chain: MPDDKYAVSFNAGVDFYKKGQIYQSLQCFADIINEGKTLSQEPTEEFVRYFANTVNYIRIISLSIQSPLEKKISAIEDEFEINTKKIKEFGDQQKNSKTLRELCVETANYISPLIDDLSIDFTDEKETTSTYKIITAVAVSVSICAAAYFLFRKKKLPEIKTAKK
